Data as given in PubChem BioAssay AID504793 (Drosophila RNAi Screening Center, 2011).
Assay: 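Knock-downs allowing continued mitosis even though DNA is damaged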 (primary screen). System: Drosophila S2R+ cells. Knock-down reagent: long dsRNA against Drosophila genes, about 0.25 µg dsRNA per well. Time to read-out: 4 days of dsRNA, then 4 hours of drug before read-out. Treatment: doxorubicin 0.5 µM for 4 hours to cause double-strand breaks, in cells also given a low, harmless dose of dsRNA against nbs to sensitise the assay. Detection: 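Per-well count of mitotic cells stained for phospho-histone H3 after doxorubicin exposure, used as mitotic index; counts are raw and not normalised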. Scale: mitotic cells: higher = more cells in mitosis, weaker G2 arrest. Call rule: 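Genes are called active only when high mitotic counts were reproduced with independent dsRNAs and mitosis was checked for delay without damage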. Meaning of the calls: active = confirmed in follow-up tests; inactive = not confirmed.
The screen tested about 23,000 reagents; below is a random part of those with a known target gene and a result. Of all reagents, 62 (0.27%) got an active call. 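Calls come from follow-up tests whose scores are not deposited, so confirmed genes may have low counts here; counts are not normalised per plate.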 Raw values vary from plate to plate and are shown uncorrected. Entries without a mark were called inactive. The numbers tell different reagents against one gene apart.

Which result is listed for CG16825?
mitotic cells, replicate 1: 4

With CG12398, what does the deposit list?
mitotic cells, replicate 1: 11

For Rpn13, how do the results read?
mitotic cells, replicate 1: 4

How did the screen score P5CDh1?
mitotic cells, replicate 1: 4

How did the screen score CG14445 #1?
mitotic cells, replicate 1: 13

For CG14445 #2, what does the deposit list?
mitotic cells, replicate 1: 10

Which result is listed for CG12929?
mitotic cells, replicate 1: 5

With CG6870 #1, what was measured?
mitotic cells, replicate 1: 3

Which result is listed for CG6870 #2?
mitotic cells, replicate 1: 6

With CG12691, what does the deposit list?
mitotic cells, replicate 1: 10

For pygo #1, how do the results read?
mitotic cells, replicate 1: 4

For pygo #2, what was measured?
mitotic cells, replicate 1: 11

Which result is listed for CG9993?
mitotic cells, replicate 1: 13

With Rlb1 #1, what was measured?
mitotic cells, replicate 1: 6

What did the screen give for Rlb1 #2?
mitotic cells, replicate 1: 6

For CG13197, how do the results read?
mitotic cells, replicate 1: 8

Which result is listed for CG8173?
mitotic cells, replicate 1: 8

What did the screen give for CG4362?
mitotic cells, replicate 1: 9

With CG10970, what does the deposit list?
mitotic cells, replicate 1: 6

For CG12253 #1, what does the deposit list?
mitotic cells, replicate 1: 7

For CG12253 #2, what was measured?
mitotic cells, replicate 1: 6

For MED27, what was measured?
mitotic cells, replicate 1: 11

What is on record for MESK2 #1?
mitotic cells, replicate 1: 3

Which result is listed for MESK2 #2?
mitotic cells, replicate 1: 5

Targets above whose target name begins with R or r:
Rpn13 → mitotic cells, replicate 1: 4
Rlb1 #1 → mitotic cells, replicate 1: 6
Rlb1 #2 → mitotic cells, replicate 1: 6
